PubChem BioAssay AID1224830 – NIAID | 2016
In all, the deposit lists about 18,000 reagents; shown is a part drawn at random. Over the whole deposit, about 2,900 (16%) were called active. 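Calls are made per well; low scores hint the gene aids the LPS response, high scores that it dampens it.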 Repeated entries: four replicate wells of each siRNA pool. Reagent sequences are not shown.

Aim: 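Regulators of TLR4 signalling towards TNF-alpha in macrophage-like cells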 (primary screen)
Cell system: human THP-1 monocytic leukaemia cells, TNF dual-luciferase reporter clone, PMA-differentiated to macrophage-like cells
Reagents: siRNA pool against human genes, 50 nM
Time to read-out: LPS for 4 h, given about 3 days after siRNA transfection
Conditions: bacterial LPS (TLR4 ligand), 10 ng/ml
Measurement: 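TNF firefly reporter luminescence divided by renilla, normalised to the plate median, then turned into a robust z-score for each replicate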
Reading the numbers: TNF reporter robust z-score: higher = stronger TNF reporter response to LPS
Rule for the call: 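Each well counts as active if its z-score is over 2.8 or under -1.5; controls are left without a call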

| Target gene | TNF reporter robust z-score | Outcome |
| --- | --- | --- |
| PNPLA3 | -0.97 | inactive |
| PNPLA3 | -0.61 | inactive |
| PNPLA3 | -0.82 | inactive |
| PNPLA3 | -0.44 | inactive |
| KIR3DP1 | 1.44 | inactive |
| KIR3DP1 | 2.36 | inactive |
| KIR3DP1 | 1.67 | inactive |
| KIR3DP1 | -0.08 | inactive |
| SIGLEC1 (sialic acid binding Ig like lectin 1) | 0.88 | inactive |
| SIGLEC1 (sialic acid binding Ig like lectin 1) | 3.1 | active |
| SIGLEC1 (sialic acid binding Ig like lectin 1) | 0.87 | inactive |
| SIGLEC1 (sialic acid binding Ig like lectin 1) | 1.83 | inactive |
| SKAP1 (src kinase associated phosphoprotein 1) | -1.19 | inactive |
| SKAP1 (src kinase associated phosphoprotein 1) | -1.17 | inactive |
| SKAP1 (src kinase associated phosphoprotein 1) | -1.33 | inactive |
| SKAP1 (src kinase associated phosphoprotein 1) | -0.27 | inactive |
| CDC6 (cell division cycle 6) | -0.3 | inactive |
| CDC6 (cell division cycle 6) | 0.69 | inactive |
| CDC6 (cell division cycle 6) | -0.09 | inactive |
| CDC6 (cell division cycle 6) | -0.2 | inactive |
| PPP1R1C (protein phosphatase 1 regulatory inhibitor subunit 1C) | -0.31 | inactive |
| PPP1R1C (protein phosphatase 1 regulatory inhibitor subunit 1C) | 0.47 | inactive |
| PPP1R1C (protein phosphatase 1 regulatory inhibitor subunit 1C) | 1.32 | inactive |
| PPP1R1C (protein phosphatase 1 regulatory inhibitor subunit 1C) | -0.06 | inactive |
| CST7 (cystatin F) | -0.02 | inactive |
| CST7 (cystatin F) | -0.05 | inactive |
| CST7 (cystatin F) | -0.13 | inactive |
| UBASH3A (ubiquitin associated and SH3 domain containing A) | 2.04 | inactive |
| UBASH3A (ubiquitin associated and SH3 domain containing A) | 3.43 | active |
| UBASH3A (ubiquitin associated and SH3 domain containing A) | 3.78 | active |
| UBASH3A (ubiquitin associated and SH3 domain containing A) | 2.9 | active |
| COG1 (component of oligomeric golgi complex 1) | 0.2 | inactive |
| COG1 (component of oligomeric golgi complex 1) | 0.04 | inactive |
| COG1 (component of oligomeric golgi complex 1) | -0.05 | inactive |
| COG1 (component of oligomeric golgi complex 1) | 0.08 | inactive |
| TSC22D2 (TSC22 domain family member 2) | 2.14 | inactive |
| TSC22D2 (TSC22 domain family member 2) | 0.49 | inactive |
| TSC22D2 (TSC22 domain family member 2) | 0.69 | inactive |
| TSC22D2 (TSC22 domain family member 2) | 0.57 | inactive |
| NMRK1 (nicotinamide riboside kinase 1) | -1.18 | inactive |
| NMRK1 (nicotinamide riboside kinase 1) | -0.89 | inactive |
| NMRK1 (nicotinamide riboside kinase 1) | -0.38 | inactive |
| NMRK1 (nicotinamide riboside kinase 1) | 1.44 | inactive |
| ATXN7L2 (ataxin 7 like 2) | 0.33 | inactive |
| ATXN7L2 (ataxin 7 like 2) | 0.39 | inactive |
| ATXN7L2 (ataxin 7 like 2) | 0 | inactive |
| ATXN7L2 (ataxin 7 like 2) | 0.21 | inactive |
| FIBCD1 (fibrinogen C domain containing 1) | -1.76 | active |
| FIBCD1 (fibrinogen C domain containing 1) | -1.29 | inactive |
| FIBCD1 (fibrinogen C domain containing 1) | -1.66 | active |
| FIBCD1 (fibrinogen C domain containing 1) | -0.97 | inactive |
| POLR2G (RNA polymerase II subunit G) | -0.46 | inactive |
| POLR2G (RNA polymerase II subunit G) | -1.36 | inactive |
| POLR2G (RNA polymerase II subunit G) | 0.14 | inactive |
| POLR2G (RNA polymerase II subunit G) | -0.16 | inactive |
| ZBTB18 (zinc finger and BTB domain containing 18) | 0.02 | inactive |
| ZBTB18 (zinc finger and BTB domain containing 18) | -0.28 | inactive |
| ZBTB18 (zinc finger and BTB domain containing 18) | 0.55 | inactive |
| ZBTB18 (zinc finger and BTB domain containing 18) | 1.22 | inactive |
| EFHD1 (EF-hand domain family member D1) | -0.39 | inactive |
| EFHD1 (EF-hand domain family member D1) | -0.68 | inactive |
| EFHD1 (EF-hand domain family member D1) | -0.12 | inactive |
| EFHD1 (EF-hand domain family member D1) | -1.16 | inactive |
| NT5C3B (5'-nucleotidase, cytosolic IIIB) | 0.46 | inactive |
| NT5C3B (5'-nucleotidase, cytosolic IIIB) | 1.31 | inactive |
| NT5C3B (5'-nucleotidase, cytosolic IIIB) | 2.29 | inactive |
| NT5C3B (5'-nucleotidase, cytosolic IIIB) | 5.33 | active |
| RPS6 (ribosomal protein S6) | 1.43 | inactive |
| RPS6 (ribosomal protein S6) | 1.92 | inactive |
| RPS6 (ribosomal protein S6) | 1.11 | inactive |
| RPS6 (ribosomal protein S6) | 1.85 | inactive |
| AFDN-DT (AFDN divergent transcript) | 0.78 | inactive |
| AFDN-DT (AFDN divergent transcript) | 1.36 | inactive |
| AFDN-DT (AFDN divergent transcript) | 0.59 | inactive |
| AFDN-DT (AFDN divergent transcript) | 0.95 | inactive |
| OR7A5 (olfactory receptor family 7 subfamily A member 5) | 1.43 | inactive |
| OR7A5 (olfactory receptor family 7 subfamily A member 5) | 0.88 | inactive |
| OR7A5 (olfactory receptor family 7 subfamily A member 5) | 1.12 | inactive |
| OR7A5 (olfactory receptor family 7 subfamily A member 5) | 0.03 | inactive |
| NUDT6 (nudix hydrolase 6) | 2.76 | inactive |
| NUDT6 (nudix hydrolase 6) | 2.24 | inactive |
| NUDT6 (nudix hydrolase 6) | 0.17 | inactive |
| NUDT6 (nudix hydrolase 6) | 2.62 | inactive |
| CCDC140 (CCDC140 long non-coding RNA) | 4.48 | active |
| CCDC140 (CCDC140 long non-coding RNA) | 3.49 | active |
| CCDC140 (CCDC140 long non-coding RNA) | 1.53 | inactive |
| CCDC140 (CCDC140 long non-coding RNA) | 1.44 | inactive |
| AMER3 (APC membrane recruitment protein 3) | 0.81 | inactive |
| AMER3 (APC membrane recruitment protein 3) | 0.22 | inactive |
| AMER3 (APC membrane recruitment protein 3) | 2.06 | inactive |
| AMER3 (APC membrane recruitment protein 3) | 1.75 | inactive |
| C20orf96 (chromosome 20 open reading frame 96) | -1.04 | inactive |
| C20orf96 (chromosome 20 open reading frame 96) | -0.71 | inactive |
| C20orf96 (chromosome 20 open reading frame 96) | -0.8 | inactive |
| C20orf96 (chromosome 20 open reading frame 96) | -0.92 | inactive |
| ENPP2 (ectonucleotide pyrophosphatase/phosphodiesterase 2) | -0.72 | inactive |
| ENPP2 (ectonucleotide pyrophosphatase/phosphodiesterase 2) | -0.32 | inactive |
| ENPP2 (ectonucleotide pyrophosphatase/phosphodiesterase 2) | 0.25 | inactive |
| ENPP2 (ectonucleotide pyrophosphatase/phosphodiesterase 2) | 0.74 | inactive |
| PSMA5 (proteasome 20S subunit alpha 5) | -1.64 | active |
| PSMA5 (proteasome 20S subunit alpha 5) | -0.82 | inactive |
| PSMA5 (proteasome 20S subunit alpha 5) | -1.39 | inactive |
| PSMA5 (proteasome 20S subunit alpha 5) | -1.05 | inactive |
| PRC1 (protein regulator of cytokinesis 1) | 2.21 | inactive |
| PRC1 (protein regulator of cytokinesis 1) | 3.36 | active |
| PRC1 (protein regulator of cytokinesis 1) | 1.93 | inactive |
| PRC1 (protein regulator of cytokinesis 1) | 1.45 | inactive |
| SLC38A7 | 0.79 | inactive |
| SLC38A7 | 1.46 | inactive |
| SLC38A7 | 1.14 | inactive |
| SLC38A7 | 0.97 | inactive |
| SIRT5 (sirtuin 5) | 0.07 | inactive |
| SIRT5 (sirtuin 5) | -0.04 | inactive |
| SIRT5 (sirtuin 5) | -0.28 | inactive |
| SIRT5 (sirtuin 5) | 0.24 | inactive |
| STK11 (serine/threonine kinase 11) | -0.45 | inactive |
| STK11 (serine/threonine kinase 11) | 0.37 | inactive |
| STK11 (serine/threonine kinase 11) | -0.74 | inactive |
| STK11 (serine/threonine kinase 11) | 0.26 | inactive |
| DDO (D-aspartate oxidase) | 1.44 | inactive |
| DDO (D-aspartate oxidase) | 1.68 | inactive |
| DDO (D-aspartate oxidase) | 1.64 | inactive |
| DDO (D-aspartate oxidase) | 3.41 | active |
| FARSB (phenylalanyl-tRNA synthetase subunit beta) | 2.06 | inactive |
| FARSB (phenylalanyl-tRNA synthetase subunit beta) | 1.78 | inactive |
| FARSB (phenylalanyl-tRNA synthetase subunit beta) | 1.3 | inactive |
| FARSB (phenylalanyl-tRNA synthetase subunit beta) | 3.11 | active |
| PPIL1 (peptidylprolyl isomerase like 1) | -0.26 | inactive |
| PPIL1 (peptidylprolyl isomerase like 1) | -0.65 | inactive |
| PPIL1 (peptidylprolyl isomerase like 1) | -0.47 | inactive |
| PPIL1 (peptidylprolyl isomerase like 1) | 0.01 | inactive |
| METTL27 (methyltransferase like 27) | 0.91 | inactive |
| METTL27 (methyltransferase like 27) | 1.03 | inactive |
| METTL27 (methyltransferase like 27) | 0.76 | inactive |
| METTL27 (methyltransferase like 27) | 1.34 | inactive |
| LRRC24 (leucine rich repeat containing 24) | -1.29 | inactive |
| LRRC24 (leucine rich repeat containing 24) | -0.47 | inactive |
| LRRC24 (leucine rich repeat containing 24) | -0.9 | inactive |
| LRRC24 (leucine rich repeat containing 24) | 1.56 | inactive |
| USP37 (ubiquitin specific peptidase 37) | -1.5 | inactive |
| USP37 (ubiquitin specific peptidase 37) | 0.29 | inactive |
| USP37 (ubiquitin specific peptidase 37) | -0.99 | inactive |
| USP37 (ubiquitin specific peptidase 37) | -0.71 | inactive |

22 consecutive reagents already listed, quoted:
| Target gene | TNF reporter robust z-score | Outcome |
| --- | --- | --- |
| NUDT6 (nudix hydrolase 6) | 2.24 | inactive |
| NUDT6 (nudix hydrolase 6) | 0.17 | inactive |
| NUDT6 (nudix hydrolase 6) | 2.62 | inactive |
| CCDC140 (CCDC140 long non-coding RNA) | 4.48 | active |
| CCDC140 (CCDC140 long non-coding RNA) | 3.49 | active |
| CCDC140 (CCDC140 long non-coding RNA) | 1.53 | inactive |
| CCDC140 (CCDC140 long non-coding RNA) | 1.44 | inactive |
| AMER3 (APC membrane recruitment protein 3) | 0.81 | inactive |
| AMER3 (APC membrane recruitment protein 3) | 0.22 | inactive |
| AMER3 (APC membrane recruitment protein 3) | 2.06 | inactive |
| AMER3 (APC membrane recruitment protein 3) | 1.75 | inactive |
| C20orf96 (chromosome 20 open reading frame 96) | -1.04 | inactive |
| C20orf96 (chromosome 20 open reading frame 96) | -0.71 | inactive |
| C20orf96 (chromosome 20 open reading frame 96) | -0.8 | inactive |
| C20orf96 (chromosome 20 open reading frame 96) | -0.92 | inactive |
| ENPP2 (ectonucleotide pyrophosphatase/phosphodiesterase 2) | -0.72 | inactive |
| ENPP2 (ectonucleotide pyrophosphatase/phosphodiesterase 2) | -0.32 | inactive |
| ENPP2 (ectonucleotide pyrophosphatase/phosphodiesterase 2) | 0.25 | inactive |
| ENPP2 (ectonucleotide pyrophosphatase/phosphodiesterase 2) | 0.74 | inactive |
| PSMA5 (proteasome 20S subunit alpha 5) | -1.64 | active |
| PSMA5 (proteasome 20S subunit alpha 5) | -0.82 | inactive |
| PSMA5 (proteasome 20S subunit alpha 5) | -1.39 | inactive |
